Results published in patent US20240190950A1, “METHOD OF TREATING DISEASES USING GREMLIN1 ANTAGONISTS” (SHANGHAI JIAO TONG UNIVERSITY, priority 2021, published 2024).
For at least one compound, name, drawing or mass did not settle the structure.

System: LNCaP cells
Assay: GREM1-promoted PCa cell proliferation and sphere formation with FGFR1/MEK inhibitors or BMP4
Assay type: cell-based, human
Source text: MAPK signaling can be activated through many membrane receptors besides FGFR. To test whether the activation of MAPK pathway by GREM1 was via FGFR, we constructed a FGFR1 knockout LNCaP subline by the CRISPR/Cas9 method. […] To further test whether the tumor promoting effect of GREM1 was through FGFR, we utilized small molecule inhibitors of FGFR or EGFR.

## CC(=O)Nc1cccc(-n2c(=O)n(C3CC3)c(=O)c3c(Nc4ccc(I)cc4F)n(C)c(=O)c(C)c32)c1 [Trametinib]
  proliferation promoting role of GREM1: significantly compromised
  sphere-formation promoting role of GREM1: significantly compromised
